Data on one substance can be found in patent publication US11371013B2, “Culture medium composition and method of culturing cell or tissue using thereof” (Nissan Chemical Industries, Ltd., priority 2012, dated 2022).

The subject of the series is HeLa cell sphere. Nature of the series: Cell suspension test with HeLa cell spheres. More on the design: species or system human. To be noted: 37°C, 1 hr.

collagen: the HeLa cell suspension/sedimentation result is listed as “sedimentation” (0.01% (w/v)), “suspension” (0.05% (w/v)), “suspension” (0.1% (w/v)) and “suspension” (0.2% (w/v)).
